## Screening data

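SH-SY5Y cells carrying a GLuc-SERCaMP reporter are challenged with thapsigargin, and luminescence from the secreted luciferase is read, with one incubation step lasting 4 hours.
Compounds were run as a dilution series spanning about 2.6e-05 to 200 µM, mostly topping out at 38.4 µM.
The number is the fitted AC50 for inhibition of the reporter signal; a lower value means a more potent compound.
Calls come from curve class and activity score: actives score 40 to 100, inconclusives 1 to 39, and inactives (curve class 4) score 0.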

Values are in µM.
All entries here are filed as inconclusive.
Only part of the assay is shown, chiefly results filed as inconclusive.
A potency from a partial, single-point or poor curve is only a rough figure.
Some entries filed as inconclusive have a full curve.
Activity scores are not listed here.
An entry listed twice with the same setting is a separate test.

With CCC(Sc1ccccc1)C(=O)OC1CC2CCC(C1)N2C (stereo unspecified) the assay gave potency 2.818 µM (inhibitor, full curve, poor fit). COc1ccccc1-c1ccc2ncnc(NCc3cnc(C)cn3)c2c1 read potency 28.18 µM (inhibitor, single point). Result for O=C(c1cnccn1)N1CCC2(CCCN(c3cccc(-c4ccccc4)c3)C2)CC1 was potency 11.22 µM (inhibitor, partial curve, poor fit). C=CCN1CCc2cccc3c2C1Cc1ccc(O)c(O)c1-3 (stereo unspecified) gave potency 22.39 µM (inhibitor, partial curve, poor fit).

For CC(C)(C)C(O)/C=C/c1ccc2c(c1)OCO2 (stereo unspecified) the result was potency 31.62 µM (inhibitor, single point). C[N+](C)(C)CCCCCNCC12CC3CC(CC(C3)C1)C2 read potency 28.18 µM (inhibitor, partial curve, poor fit). Result for CN(C)c1ncc2nc(CCc3ccccc3)c(=O)n(C[C@H]3CCCO3)c2n1 was potency 22.39 µM (inhibitor, partial curve, poor fit). CCN(CC)CCOCCOC(=O)C1(c2ccccc2)CCCC1 read potency 14.13 µM (inhibitor, single point).

For Cc1cccc(CNc2nc(-c3ccc(C(=O)N(C)C)cc3)nc3ccccc23)c1 the result was potency 28.18 µM (inhibitor, single point). With CCN(CC)CCOCCOC(=O)C1(c2ccccc2)CCCC1 the assay gave potency 25.12 µM (inhibitor, single point). COc1ccccc1-c1ccc2ncnc(N3CCNCC3)c2c1 gave potency 10 µM (inhibitor, single point). For O=c1c(-c2cccs2)nc2cnc(N3CCNCC3)nc2n1CCc1ccccc1 the result was potency 6.31 µM (inhibitor, partial curve, poor fit).

For NC(=O)c1cc[n+](CC2=C(C(=O)[O-])N3C(=O)[C@@H](NC(=O)Cc4cccs4)[C@H]3SC2)cc1 the result was potency 10 µM (inhibitor, partial curve, poor fit). With CN1CCN(c2ncc3nc(-c4cccs4)c(=O)n(Cc4cccs4)c3n2)CC1 the assay gave potency 4.467 µM (inhibitor, full curve, poor fit). Oc1ccc2ccccc2c1SSc1c(O)ccc2ccccc12 gave potency 0.0943 µM (inhibitor, partial curve, poor fit). CC(O)CCCCn1c(=O)c2c(ncn2C)n(C)c1=O (stereo unspecified) read potency 35.48 µM (inhibitor, partial curve, poor fit).

CCCCCCC[n+]1ccc(-c2cc[n+](CCCCCCC)cc2)cc1 read potency 2.818 µM (inhibitor, full curve, poor fit). FC(F)(F)c1cc(CN2CC[C@@]3(CCCNC3)C2)cc(C(F)(F)F)c1 read potency 28.18 µM (inhibitor, full curve). N#Cc1cccc(-c2ccc3ncnc(NCc4cccs4)c3c2)c1 read potency 28.18 µM (inhibitor, single point). CNCC(N)C(=O)O (stereo unspecified) gave potency 2.239 µM (inhibitor, full curve).

CCNc1ncc2nc(-c3ccccc3)c(=O)n(CCC#N)c2n1 read potency 5.012 µM (inhibitor, partial curve, poor fit). CCN(CC)C(=S)SSC(=S)N(CC)CC read potency 35.48 µM (inhibitor, partial curve, poor fit). CN(CCOc1ccc(NS(C)(=O)=O)cc1)CCc1ccc(NS(C)(=O)=O)cc1 gave potency 31.62 µM (inhibitor, single point). CC(C)(c1ccc(OC[C@@H]2CO2)cc1)c1ccc(OC[C@H]2CO2)cc1 gave potency 35.48 µM (inhibitor, partial curve, poor fit).

CC1(C)CCC(C)(C)c2cc(C(=O)Nc3ccc(C(=O)O)cc3)ccc21 gave potency 2.239 µM (inhibitor, full curve). COc1ccc(CNc2ncnc3ccc(-c4ccc(N(C)C)cc4)cc23)c(OC)c1 read potency 19.95 µM (inhibitor, single point).

Data taken from PubChem BioAssay AID1508630, deposited by NCATS (2021).